Data from doi:10.1101/2024.06.26.600663.
These are yes or no findings as the source states them, for the method shown. Binding seen in cells or lysates may run through a third protein. Some results given as binding are weak or reduced against the parent protein; the word gives no strength. Tags and fused reporters may be left off the sequences shown.

Target: T1, Cnd2-Pk (fission yeast) (Schizosaccharomyces pombe (fission yeast)) (UniProt Q9Y7R3)
T1 sequence: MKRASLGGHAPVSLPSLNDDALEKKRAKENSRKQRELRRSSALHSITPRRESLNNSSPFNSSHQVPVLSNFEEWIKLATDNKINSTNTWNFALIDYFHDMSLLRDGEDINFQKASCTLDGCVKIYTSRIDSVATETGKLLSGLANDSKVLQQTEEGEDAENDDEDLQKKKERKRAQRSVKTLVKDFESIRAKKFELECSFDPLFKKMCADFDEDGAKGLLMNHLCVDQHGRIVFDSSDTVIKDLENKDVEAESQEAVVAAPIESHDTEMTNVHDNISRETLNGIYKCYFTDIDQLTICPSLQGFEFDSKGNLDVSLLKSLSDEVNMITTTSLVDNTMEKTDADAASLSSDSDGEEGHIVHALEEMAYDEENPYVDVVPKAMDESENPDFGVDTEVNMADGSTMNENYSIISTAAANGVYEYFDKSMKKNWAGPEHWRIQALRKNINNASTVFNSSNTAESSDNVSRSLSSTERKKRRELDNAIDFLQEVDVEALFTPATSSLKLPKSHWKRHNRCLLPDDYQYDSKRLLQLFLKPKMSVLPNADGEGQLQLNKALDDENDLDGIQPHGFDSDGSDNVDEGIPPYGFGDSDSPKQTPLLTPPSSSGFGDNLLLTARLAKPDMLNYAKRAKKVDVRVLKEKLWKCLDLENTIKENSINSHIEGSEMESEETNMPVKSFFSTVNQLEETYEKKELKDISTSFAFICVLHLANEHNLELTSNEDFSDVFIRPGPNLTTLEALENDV
Assay: co-IP

B1: Cnd1-Myc (wild type, expressed from its endogenous locus in fission yeast) (protein, UniProt O94679 1-1158)
chain: MSLDLLSRLKKYIHDEENSDLDSIYAECENAGLTAVVNDVIDTLLLGTSSCFDEDCLEKLFAICSHFADLSSSVRNKVYDLLTSNISSESAILEDMISANATDFTVPQTNLETTGIAFQLTVNSLSSSNQLSVIRSSTNTVKGRKKNPTTNSNWNGISHVNALLDAIITLFQKKLSRVWTTSSERDMFLSLFLKPIYTLMESEINIKNASFRSRLFNIIGLAVQFHNHTTAAETNIIQNLQYFEHLSEYAADLVHIVTVQFNSVTLAEGIIRTLCSLEFNDNDVKGPKQVALFLVRLSSLIPNLCLKQLTQLVKLLDSESYTLRCAIIEVLANVVIDQIHDEAQNEMSESVPATVQSLMDLLSERLLDISPYCRTKVLHVFIKIFDLPIKYPRKRQEIAELVIRCLQDRSSHVRRNAIKLFSKLLTTHPFSVMHNGLLTRNIWEKGLSIIEEQLNSLQPKQQEKVVDSELEVDENLLEDATMIQDDESHEGESHLENSLSEYVDSVPAEEIVKVNLTKRFYLEALQYIDIVEAGAKIISQLLFAKNKSEVIESMDFFVFCNSFGISSSKLYIKKMIHLIWVKGTSDEGNNIQNHVLSCYKTLFFEPPPNSGTNEAANYIARNLISLTYDASLAELTSLEQMLCILMKDGYFSHLVITKLWQVYSYQKKDISRTQRRGSIIVIGMLALGNTDVVMQGLDHLIQIGLGPPGLEDLVLARYTCIAIKRIGKDASGSSNINFPNSHTLCQKLCMLLLRPSFSEEWFGLEEQAIEAIYAVAKHPDELCTNIILLLTKQLFKPSNHENTTSNDDHAMDEDLDDSPEEETLKDEEEIGIRLAHLIFLVGHVAIKQLVYIEYCEAEFKRRKADAERLAVQNSNNPINGQETSEYDLITGTSEDDFSEAMTFIRERELLYGENSLLSRFAPLVVELCSNHKSHNNQSLLLAASLTLSKFMCLSNNFCMEHLPLLITILEKCDNPIIRNNLVIGLADLTVCFNHFIDEISEYLYRRLMDEESSVKKTCFMTLAFLILAGQIKVKGQLGIMARSLEDEDARISDLARMFFTDFAAKDNSVYNNFIDIFSVLSRSAEEQDEDDAKFKRIIRFLTSFIEKERHTKQLAERLAARLDRCKTQRQWDHVVYALSLLPHKADNIQKLIDDGYHE
binding: binds

B2: Cnd1-K658E-Myc (mutant Cnd1-Myc in fission yeast) (protein, UniProt O94679 1-1158)
chain: MSLDLLSRLKKYIHDEENSDLDSIYAECENAGLTAVVNDVIDTLLLGTSSCFDEDCLEKLFAICSHFADLSSSVRNKVYDLLTSNISSESAILEDMISANATDFTVPQTNLETTGIAFQLTVNSLSSSNQLSVIRSSTNTVKGRKKNPTTNSNWNGISHVNALLDAIITLFQKKLSRVWTTSSERDMFLSLFLKPIYTLMESEINIKNASFRSRLFNIIGLAVQFHNHTTAAETNIIQNLQYFEHLSEYAADLVHIVTVQFNSVTLAEGIIRTLCSLEFNDNDVKGPKQVALFLVRLSSLIPNLCLKQLTQLVKLLDSESYTLRCAIIEVLANVVIDQIHDEAQNEMSESVPATVQSLMDLLSERLLDISPYCRTKVLHVFIKIFDLPIKYPRKRQEIAELVIRCLQDRSSHVRRNAIKLFSKLLTTHPFSVMHNGLLTRNIWEKGLSIIEEQLNSLQPKQQEKVVDSELEVDENLLEDATMIQDDESHEGESHLENSLSEYVDSVPAEEIVKVNLTKRFYLEALQYIDIVEAGAKIISQLLFAKNKSEVIESMDFFVFCNSFGISSSKLYIKKMIHLIWVKGTSDEGNNIQNHVLSCYKTLFFEPPPNSGTNEAANYIARNLISLTYDASLAELTSLEQMLCILMKDGYFSHLVITELWQVYSYQKKDISRTQRRGSIIVIGMLALGNTDVVMQGLDHLIQIGLGPPGLEDLVLARYTCIAIKRIGKDASGSSNINFPNSHTLCQKLCMLLLRPSFSEEWFGLEEQAIEAIYAVAKHPDELCTNIILLLTKQLFKPSNHENTTSNDDHAMDEDLDDSPEEETLKDEEEIGIRLAHLIFLVGHVAIKQLVYIEYCEAEFKRRKADAERLAVQNSNNPINGQETSEYDLITGTSEDDFSEAMTFIRERELLYGENSLLSRFAPLVVELCSNHKSHNNQSLLLAASLTLSKFMCLSNNFCMEHLPLLITILEKCDNPIIRNNLVIGLADLTVCFNHFIDEISEYLYRRLMDEESSVKKTCFMTLAFLILAGQIKVKGQLGIMARSLEDEDARISDLARMFFTDFAAKDNSVYNNFIDIFSVLSRSAEEQDEDDAKFKRIIRFLTSFIEKERHTKQLAERLAARLDRCKTQRQWDHVVYALSLLPHKADNIQKLIDDGYHE
binding: binds
